Test results as given in PubChem BioAssay AID493014 (National Center for Advancing Translational Sciences (NCATS), 2011).
About 170 (0.05%) of roughly 340,000 compounds were called active. The inconclusive results got no clear call from the source; some entries with a clear call stand among them for comparison. The call rests on the fitted dose curve; in most records, active means well fitted inhibition curve with a large enough effect in the signal ratio, with a control signal flat (not every such curve was filed as active); inconclusive means small, poorly fitted or top-dose-only effect, or effect the other way, or a change in a side signal; inactive means flat fitted curve, though single readings scatter; the % refers to the signal ratio. Potencies beside an inconclusive call are fits to weak or partial responses and may not hold up.

Test: qHTS Assay to Find Inhibitors of Chronic Active B-Cell Receptor Signaling;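 on activity change, negative = inhibition: plate controls were basal doxycycline-induced cells for no effect and cells given 10 µM MG132 for full effect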
Conditions: ABC-DLBCL IkBa-CBG/CBR reporter, luminescence ratio (green luciferase fused to IkBa over red control in TMD8 lymphoma cells), 4 h; activity change, negative = inhibition: at 46.1 µM (top of the series)
In short: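 Concentration-response series (up to 46 uM) were applied to TMD8 dual-reporter cells for 4 h at 37C with doxycycline. Green/red ratio, after filter-overlap correction, defined %Activity; red signal alone was normalised to basal cells and zero luminescence.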
Potency means the concentration at half of the fitted maximal effect.

| Compound | activity change, negative = inhibition | Potency |
| --- | --- | --- |
| COC(=O)c1cc(-c2ccc(OC)c(OC)c2)c2c(=O)[nH]c(=O)n(C)c2n1 | inconclusive: -2.89% | – |
| Cc1ccc(C(=O)O/N=C(\N)c2ccccn2)cc1Cl | – | inconclusive: 11.2 µM [falling, partial curve] |
| O=C(NCCc1ccccc1)c1ccc2c(c1)OCO2 | – | inconclusive: 35.5 µM [rising, single point] |
| CC(=O)Nc1ccc(C(=O)N(C)C(C(=O)Nc2ccc(C)cc2)c2ccccn2)cc1 (centres undefined) | inconclusive: 3.38% | – |
| CC1CCCCN1c1ccc(N)cc1C(N)=O (centres undefined) | inconclusive: -21.4% | – |
| CN1CCN(c2ccc(NC(=S)NC(=O)c3cccc4c(Cl)cccc34)cc2)CC1 | inactive: 11.9% | – |
| CCC(C)c1ccc(NC(=S)NN2CCOCC2)cc1 (centres undefined) | inconclusive: 11% | – |
| CCC(CC)c1nnc(NC(=O)c2cc([N+](=O)[O-])ccc2N2CCCCC2)s1 | inconclusive: 2.79% | – |
| CC(C)C(OC(=O)c1ccccc1)c1nccc2ccccc12 (centres undefined) | inconclusive: 10.9% | – |
| O=C(CN1CCCCC1)Nc1ccccc1Oc1ccccc1 | – | inconclusive: 4.47 µM [rising, partial curve, poor fit] |
| CC1C(=O)CCN(C(C)(C)C)C1C (centres undefined) | inconclusive: 5.22% | – |
| Cc1ccc(CN2C(=O)C(C)Nc3ncnc(N4CCN(c5ccccn5)CC4)c32)cc1 (centres undefined) | inactive: -12.2% | – |
| CCCN(CC(=O)Nc1ccccc1C)C(=O)c1ccc(-c2ccc([N+](=O)[O-])cc2)o1 | inconclusive: -6.69% | – |
| Cc1ccc(C)c(N(C)C(=O)c2ccc3c(=O)n4c(nc3c2)CCCCC4)c1 | inactive: 1.47% | – |
| CCC(C)c1ccc(NC(=O)C2=CC=CN3CCS(=O)(=O)N=C23)cc1 (centres undefined) | inconclusive: 9.12% | – |
| C/C(=N/NC(=O)c1ccco1)c1cccnc1 | inconclusive: -28.7% | – |
| Cc1cccc(OCCOC(=O)c2c(-c3ccccc3)noc2C)c1 | inactive: 5.11% | – |
| CCCCN1CC(C(=O)NCc2ccc(C)cc2)CC1=O (centres undefined) | – | inconclusive: 0.58 µM [falling, partial curve, poor fit] |
| CCOC(=O)C(=O)Nc1cc(C)on1 | inconclusive: 338% | – |
| C/C(=N\Nc1nc(C)cc(-c2ccccc2)n1)c1ccc(C)o1 | inconclusive: -0.507% | – |
| CC1CCC(NC(=O)CSc2nncs2)CC1 (centres undefined) | inconclusive: 16.7% | – |
| CC1CCN(c2c([N+](=O)[O-])nn(-c3ccc4c(c3)OCCO4)[n+]2[O-])CC1 | inconclusive: 17.6% | – |
| CC(C)(C)OC(=O)N1CCN(c2ccc(NC(=O)c3ccco3)cc2)CC1 | inactive: -10.8% | – |
| CCOC(=O)C1CCN(C(=O)CN2C(=O)NC(C)(c3ccc4cc(OC)ccc4c3)C2=O)CC1 (centres undefined) | inactive: -1.79% | – |

Part of the list above, set out differently.
Compound	activity change, negative = inhibition	Potency
CCOC(=O)C(=O)Nc1cc(C)on1	inconclusive: 338%	–
C/C(=N\Nc1nc(C)cc(-c2ccccc2)n1)c1ccc(C)o1	inconclusive: -0.507%	–
